Laboratory results from PubChem BioAssay AID1794845 (National Center for Advancing Translational Sciences (NCATS), 2023).
Fewer than 10 of roughly 6,900 compounds were called active. The call rests on the fitted dose curve; in most records, active means well fitted curve in the direction sought with a large enough effect; inconclusive means small, poorly fitted or top-dose-only effect, or another doubt; inactive means no such curve, though single readings can be large or run the other way. The list shows a part of the results.

Protein sequences, listed by entry. Tags and fused reporters are not part of them. Lines headed by an entry give the natural chain unless they say otherwise; changes in a name come on top.
UniProt C7C422: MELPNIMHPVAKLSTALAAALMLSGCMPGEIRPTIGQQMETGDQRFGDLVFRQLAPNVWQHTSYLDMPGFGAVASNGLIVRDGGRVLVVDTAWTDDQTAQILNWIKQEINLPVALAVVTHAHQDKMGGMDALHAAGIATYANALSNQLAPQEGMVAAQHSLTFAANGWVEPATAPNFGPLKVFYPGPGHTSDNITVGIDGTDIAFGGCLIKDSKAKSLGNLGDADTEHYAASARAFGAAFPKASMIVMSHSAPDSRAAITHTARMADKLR

Target: Metallo-beta-lactamase type 2 (Klebsiella pneumoniae) (UniProt C7C422)
Test: qHTS to identify inhibitors of the New Delhi Metallo-beta-lactamase (NDM): primary screen against the NCATS Gemini Collection; further: % of control where 0% means no effect
Settings: NDM-1 enzyme, meropenem hydrolysis, absorbance 300 nm; at 38.4 µM (top of the series) unless noted
Outline: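 NDM-1 at 2 nM final in 50 mM HEPES pH 7.0, 1 uM ZnSO4, 0.01% Tween20, preincubated >30 min with compound. Meropenem 50 uM final added; absorbance at 300 nm after 30 min.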

Activity % (negative = inhibition), inactive:
Cc1ccc(C#N)c(NCc2cccnc2Oc2cccc(C(F)(F)F)c2)n1 2.34%
COCC1CN(C)CC12CCN(C(=O)CCc1ccc(OC)cc1)CC2 (stereo not given) -5.86%
CNC(=O)[C@@H]1C[C@H](n2cc(CNS(=O)(=O)c3cc(C)ccc3F)nn2)CN1 10.1%
Cc1nnc2n1CCC(NC(=O)CCCc1nc3ccccc3s1)CC2 (stereo not given) 5.53%
COc1cccc(CNC(=O)[C@@]23CCCC[C@H]2N(CCc2ccccc2)C(=O)CC3)c1 1.42%
Cc1nc(C2CC(O)C2)cc(N2CCC(c3nncn3C)CC2)n1 (stereo not given) 37.3%
CCOc1ccccc1CN1CCC2(Cc3ccccc3CNC2=O)C1 (stereo not given) 1.18%
CN(Cc1ccc(Oc2ncccn2)cc1)CC1CCN(CCc2ccc(F)cc2)CC1 3.29%
CN(C1CCc2nn(CC3CC3)c(=O)n2CC1)S(=O)(=O)c1cccnc1 (stereo not given) 0.54%
CNC(=O)[C@@H](CC(C)C)N1CCC[C@H]1C(=O)N1CCN(C)CC1 -0.541% [at 57.5 µM]
CC1=NS(=O)(=O)N(CCc2ccccc2)C=C1C(=O)O 6.08%
CCCCc1nn(CC(=O)N2CCCC2c2nc(C3CC3)no2)c(=O)n1CC (stereo not given) -0.052%
Cc1cccn2c(CC(=O)N3CCn4nc(CO)cc4C3)cnc12 58.7%
Cc1nc(C)c(C(=O)Nc2nn(Cc3ccccc3)c3cccc(OC(C)C)c23)o1 -4.28%
O=C(Nc1cccc(-c2nnc3n2CCCC3)c1)c1ccccn1 25.4%
CC1(C)CN(C(=O)c2ccc(Oc3ccccc3)o2)CC1(C)O (stereo not given) 5.45%
Cc1ccsc1CN1CCCOCCNC(=O)[C@@H]2CCCC[C@@H]21 -2.12%
O=S(=O)(c1cnc[nH]1)N1CCC(c2nc(CCOCC3CC3)no2)C1 (stereo not given) -2.63%
COc1cc(OC)nc(N2C[C@H]3OC(=O)N(Cc4ccccc4OC)[C@H]3C2)n1 54.2%
CC(=O)NC[C@@H]1C=C(C)[C@H](Cc2nnc(-c3cncn3C)o2)C[C@H]1C(C)C 0.199% [at 57.5 µM]
O=C(c1noc2c1CCCC2)N1CCOc2ccc(CN3CCN(c4ccccn4)CC3)cc2C1 -4.86%
COc1ccccc1C(=O)N1CC(N(C)c2ccccc2C)C1 -0.001%
COc1ccc(-c2cc(C(=O)NCc3cccnc3)c3c(c2)N(C)CCO3)cc1OC 2.63% [at 57.5 µM]
CCOC(=O)C1CCCN(C(=O)c2cc(-c3ccc(Cl)cc3Cl)c3nncn3n2)C1 (stereo not given) 9.14%
CC1CCN([C@@H]2[C@H](O)[C@H](CO)O[C@@H]2CNC(=O)c2cccs2)CC1 -0.0979% [at 57.5 µM]
O=C(CN1C(=O)C(c2ccccc2)=NC12CCCCCC2)NCC1CCCO1 (stereo not given) 66.9%
O=c1ncn(Cc2ccccc2)c2ccc(-c3ccoc3)nc12 30.1% [at 57.5 µM]
CCOC(=O)[C@@H]1CN([S+](=O)([O-])Cc2ccccc2)[C@H]2c3ccc(OC)cc3O[C@@H]12 8.8%
O=C(CCC1CCCC1)N1CC(N(Cc2ccccn2)C(=O)Nc2ccccc2)C1 -19.2%
C=CCNC(=O)C[C@@H]1CCN(C(=O)c2ccccc2)C[C@@H]1CC 4.93% [at 57.5 µM]
CC(c1ccccn1)N(C)Cc1ccc(S(C)(=O)=O)cc1 (stereo not given) 2.62%
COC(=O)CNC(=O)N1CCCCCCNC(=O)[C@@H]2C[C@@H](c3nc(-c4cccnc4)no3)C[C@@H]21 36.7%
CCC(=O)N(C1CCOCC1)C1CCN(S(=O)(=O)c2c(C)nn(C)c2C)CC1 20.6%
COCCNC(=O)[C@H]1C[C@H](Oc2cccnc2)CN1C(=O)Nc1cccc(C)c1 1.34%
CN(Cc1ccccc1)C(=O)CCc1nc(C2CCCN2C(=O)C2CCC2)no1 (stereo not given) -6.91%
CC(=O)c1c(C)nn(CCC(=O)N[C@@H]2CCOC[C@H]2OCCO)c1C -1.72%
COc1cccc(C(=O)NC2CCN(c3cc(-c4cccs4)[nH]n3)CC2)c1OC 0.767%
COC[C@H]1CCCN1Cc1cn(-c2ccccc2C)nc1-c1ccc(OC)c(F)c1 -0.765%
O=C(c1cc2cc(F)ccc2[nH]1)N1CCCC(CO)(Cc2cccc(Cl)c2)C1 (stereo not given) 3.74%
Cn1ccnc1CN1CCN(CC2(O)CNCCOC2)CC1 (stereo not given) 9.69%
CN1CCN([C@H]2CCN(C(=O)CCCc3cn[nH]c3)C[C@H]2CCC(=O)O)CC1 0.18%
COCCN1CCCCCC(O)c2cc(C(=O)Nc3ccc(C)cc3)ccc21 (stereo not given) -6.76%
Cc1cc(C)n2nc(C(=O)N3CCCC4(CNC(=O)O4)C3)cc2n1 (stereo not given) -0.656%
N#Cc1cccc(CN2CCCC(CNS(=O)(=O)Cc3ccccc3)C2)c1 (stereo not given) -0.423%
Cc1ccc(-c2ccc(N)nc2)c2cccnc12 4.97%
Cc1ccc(CNC(=O)CCc2nc(C3CCCN3S(C)(=O)=O)no2)o1 (stereo not given) 5.63%
COc1ccccc1C1CCN(Cc2cn(-c3ccccc3)nn2)CC1 -0.117%
CN(CCc1cnn(C)c1)C(=O)c1coc(COc2cccc(C(F)(F)F)c2)n1 2.03%
CCn1cc(-c2ccc(C)cc2)cc1C(=O)O 15.2%
COc1cccc(Nc2ncc3c(n2)C(C)(C(=O)NC2CCOCC2)CC3)c1 (stereo not given) 26.8% [at 57.5 µM]
O=C(Cc1ccccc1Cl)NC1CCN(c2cc(-c3cccs3)[nH]n2)C1 (stereo not given) 27%
Cc1nnc([C@@H]2CC(F)(F)CN2C(=O)c2nccc3ccccc23)o1 5.2%
Cc1ccccc1N1Cc2c(NCc3ccc(F)cc3)ncnc2N(C)CC1=O 21.2%
O=C(NCc1cccnc1)C1CCN(C2CCN(Cc3ccc4c(c3)CCO4)CC2)CC1 -1.25%
COc1ccc(CC(=O)N[C@H]2[C@H](O)[C@H](O)C[C@@H]2c2cccnc2)cc1 -3.76% [at 57.5 µM]

3 compounds already listed, arranged by formula weight, high to low.
Activity % (negative = inhibition), inactive:
CN(Cc1ccc(Oc2ncccn2)cc1)CC1CCN(CCc2ccc(F)cc2)CC1 3.29%
CC(=O)c1c(C)nn(CCC(=O)N[C@@H]2CCOC[C@H]2OCCO)c1C -1.72%
Cc1cccn2c(CC(=O)N3CCn4nc(CO)cc4C3)cnc12 58.7%
